In patent publication US20190367627A1:
Residue numbers refer to the chain shown, from its start. Names may count otherwise. No constants are given. Whether binding was seen depends on the method and setting. Some binding calls cover weakened binding; strength is not graded here.

Sequences of proteins named here, by UniProt entry; tags and fusion partners are left off. A change or cut given only in a name is not applied to a line headed by its entry.
UniProt Q9Y5U5: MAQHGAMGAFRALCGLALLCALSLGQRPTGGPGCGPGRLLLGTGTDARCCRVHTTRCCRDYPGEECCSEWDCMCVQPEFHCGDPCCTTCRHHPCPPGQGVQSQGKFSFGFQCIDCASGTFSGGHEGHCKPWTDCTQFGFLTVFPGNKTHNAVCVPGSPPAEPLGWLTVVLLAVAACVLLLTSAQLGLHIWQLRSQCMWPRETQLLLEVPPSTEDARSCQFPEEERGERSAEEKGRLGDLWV

B1: pab1876 (IgG1) (antibody, V domains shown)
VH: QVQLVQSGAEVKKPGASVKVSCKGSGYTFTDYAMYWVRQAPGQGLEWIGVIRTYSGDVTYNQKFKDRATMTVDKSISTAYMELSRLRSDDTAVYYCAKSGTVRGFAYWGQGTLVTVSS
VL: DIVMTQSPDSLAVSLGERATINCKSSQSLLNSGNQKNYLTWYQQKPGQPPKLLIYWASTRESGVPDRFSGSGSGTDFTLTISSLQAEDVAVYHCQNDYSYPYTFGQGTKLEIKR
B2: pab1876 D57G (IgG1) (antibody, V domains shown)
VH: B1 VH with D57G
VL: DIVMTQSPDSLAVSLGERATINCKSSQSLLNSGNQKNYLTWYQQKPGQPPKLLIYWASTRESGVPDRFSGSGSGTDFTLTISSLQAEDVAVYHCQNDYSYPYTFGQGTKLEIK
B3: pab1876 R103A (IgG1) (antibody, V domains shown)
VH: B1 VH with R103A
VL: B2 VL
B4: pab1876 D97A (IgG1) (antibody, V domains shown)
VH: B1 VH
VL: B2 VL with D97A
B5: pab1967 (IgG1) (antibody, V domains shown)
VH: B1 VH with D31G, Y35H, I48M, V50L, D57G, T59S, K65R, D66E, K74T, V114I
VL: B2 VL with G33S, S69T, L84V, D97E, Y100F
B6: pab1967 (IgG1 N297A) (antibody, V domains shown)
VH: B1 VH with D31G, Y35H, I48M, V50L, D57G, T59S, K65R, D66E, K74T, V114I
VL: B2 VL with G33S, S69T, L84V, D97E, Y100F

Target: human GITR (human) (UniProt Q9Y5U5)
Experiment: flow cytometry on Jurkat cells expressing human GITR

Binder	binding
B1	binds
B2	binds
B3	binds
B4	binds
B5	binds
B6	binds
